Results are given in words; binding and its absence hold for the method and conditions named. Binding seen in cells or lysates may run through a third protein. Here binding means that the protein was enriched with, or labelled near, the bait; the list need not be complete.
Target: T1, N-acetyltransferase 10 (mouse (endogenous in BMDMs)) (UniProt Q8K224)
T1 sequence: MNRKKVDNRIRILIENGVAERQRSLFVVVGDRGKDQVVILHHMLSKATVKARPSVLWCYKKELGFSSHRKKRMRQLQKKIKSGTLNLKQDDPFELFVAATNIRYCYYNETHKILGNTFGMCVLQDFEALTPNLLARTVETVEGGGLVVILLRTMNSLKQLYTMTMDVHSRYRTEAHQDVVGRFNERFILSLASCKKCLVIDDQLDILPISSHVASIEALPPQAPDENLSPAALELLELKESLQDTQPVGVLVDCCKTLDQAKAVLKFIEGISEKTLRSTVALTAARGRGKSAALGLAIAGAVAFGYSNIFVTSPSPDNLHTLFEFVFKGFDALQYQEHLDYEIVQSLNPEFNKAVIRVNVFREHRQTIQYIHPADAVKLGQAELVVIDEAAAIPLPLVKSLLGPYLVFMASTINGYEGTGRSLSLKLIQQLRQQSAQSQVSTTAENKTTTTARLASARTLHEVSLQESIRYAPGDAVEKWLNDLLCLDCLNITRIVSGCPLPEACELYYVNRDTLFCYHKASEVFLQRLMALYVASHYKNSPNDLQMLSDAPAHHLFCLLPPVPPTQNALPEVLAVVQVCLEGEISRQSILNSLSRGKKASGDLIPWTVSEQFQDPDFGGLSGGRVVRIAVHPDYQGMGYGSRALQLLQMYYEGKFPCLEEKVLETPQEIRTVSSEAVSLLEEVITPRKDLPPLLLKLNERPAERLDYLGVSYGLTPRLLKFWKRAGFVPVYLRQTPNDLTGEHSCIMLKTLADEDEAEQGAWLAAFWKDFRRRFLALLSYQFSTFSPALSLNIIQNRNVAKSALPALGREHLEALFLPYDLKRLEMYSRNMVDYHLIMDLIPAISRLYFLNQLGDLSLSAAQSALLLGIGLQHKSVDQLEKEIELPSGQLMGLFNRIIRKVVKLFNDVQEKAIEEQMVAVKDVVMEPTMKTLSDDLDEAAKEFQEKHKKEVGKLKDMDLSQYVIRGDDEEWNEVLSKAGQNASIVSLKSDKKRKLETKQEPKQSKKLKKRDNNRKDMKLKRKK
Test: affinity purification with mass spectrometry; immunoprecipitation of endogenous NAT10 from LPS-treated BMDMs, mass spectrometry of the NAT10 interactome; three IP-MS groups

binding: binds
B1: USP39 (enzyme, UniProt Q3TIX9 1-564)
chain: MSSRSKRQSHGSTRGKRESESRGSSGRIKKERDREKEPEAASSRGSPVRVKREAEPAAREVPAPALPVVRVKREREADEDSEPEREVRAKNGRVDSEDRRSRHCPYLDTINRSVLDFDFEKLCSISLSHINAYACLVCGKYFQGRGLKSHAYIHSVQFSHHVFLNLHTLKFYCLPDNYEIIDSSLEDITYVLKPTFTKQQIANLDKQAKLSRAYDGTTYLPGIVGLNNIKANDYANAVLQALSNVPPLRNYFLEEDNYKNIKRPPGDIMFLLVQRFGELMRKLWNPRNFKAHVSPHEMLQAVVLCSKKTFQITKQGDGVDFLSWFLNALHSALGGTKKKKKTIVNDVFQGSMRIFTKKLPHPDLPAEEKEQLLHNDEYQETMVESTFMYLTLDLPTAPLYKDEKEQLIIPQVPLFNILAKFNGITEKEYKTYKENFLKRFQLTKLPPYLIFCIKRFTKNNFFVEKNPTIVNFPITNVDLREYLSEEVQAVHKNTTYDLIANIVHDGKPSEGSYRIHVLHHGTGKWYELQDLQVTDILPQMITLSEAYIQIWKRRDNDETNQQGA

From publication PMC12216202
